Experimental data published in the supplement of paper PMC3334620.
The full ranking holds about 33,000 sequences; the median of “E-score (-0.5 to 0.5)” is about -0.0034, and the highest 2% start at about 0.25. The list shows a part of the results.

The sequences below were run against T1, Yap3 (UniProt P38749) (assay: PBM E-score (8-mer binding enrichment) (E-score (-0.5 to 0.5)); higher = stronger / more preferred TF binding). Details: protein concentration: 100 nM; construct: GST-full length.
T1 sequence: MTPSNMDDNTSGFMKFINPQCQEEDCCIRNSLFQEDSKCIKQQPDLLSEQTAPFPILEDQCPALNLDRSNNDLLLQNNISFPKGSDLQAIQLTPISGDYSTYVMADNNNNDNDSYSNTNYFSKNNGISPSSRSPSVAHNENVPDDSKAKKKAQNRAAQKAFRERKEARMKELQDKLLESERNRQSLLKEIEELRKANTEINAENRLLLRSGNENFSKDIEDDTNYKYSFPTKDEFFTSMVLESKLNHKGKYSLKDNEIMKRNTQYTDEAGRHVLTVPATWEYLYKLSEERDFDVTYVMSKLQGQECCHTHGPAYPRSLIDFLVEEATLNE
Procedure, shortened: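 The E-score, a modified Wilcoxon-Mann-Whitney statistic, was computed by the Universal PBM Analysis Suite for every ungapped eight-base word pooled with its reverse complement. Scans behind it were normalised with masliner after bound GST-tagged yeast transcription factors were detected with fluorescent anti-GST. The proteins, at about 100-200 nM, had been applied to universal all-10-mer Agilent arrays made double-stranded by primer extension.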

Sequence	PBM E-score
CTCAGCAC	-0.065
ATGGCTGG	-0.123
ACATCCGT	0.058
ATCAAGGC	0.00014
CCGGGGTC	-0.238
CCTTCGCA	-0.193
GTGGAGAA	0.0437
TACGCGTA	0.0111
GTGATGCA	0.0888
GTTCCCTA	-0.14
ACTACGAA	0.099
GCTACCTA	0.0412
AAACGGCC	-0.106
CGGGTTGA	-0.139
CCTGGAAA	-0.00843
ATTTAGTG	0.204
AGAGTCTC	-0.0727
CCGCAATC	0.0307
AGGGGATA	-0.0149
CCTTAACA	-0.014
ACGGTTAC	0.0173
ATAGCACA	0.0106
CTTGGGAC	-0.238
CGTAAACG	-0.134
CTACTCCC	-0.0178

Sequence	PBM E-score
ATGATATA	0.167
AGGTGTAT	0.209
ATACAAAT	0.173
GCCCCCGA	-0.324
ATTTCTTA	0.155
ACTGTTGG	-0.122
AGACGAAT	0.0472
AAGCATCG	-0.0188
ATCTTCCG	0.0919
ACCGATCT	0.0212
CGATGAAG	0.012
TAATAGCA	0.0467
TAATGCAA	0.0323
ATCTCTCC	-0.0209
AAGACGAA	0.153
CAAATATG	0.131
CTAACCAG	0.0215
CCCTTTAG	-0.145
CTACTAGA	0.0578
CAGCGCTG	0.0656
CCGTAGGA	-0.138
GATCAATC	-0.0277
GCCAACGC	-0.102
AAACAGGA	0.0526
CGGGTTGC	-0.0878

Sequence	PBM E-score
AAGTCTGT	-0.0052
CTACCGTA	-0.00491
ACCGTTTC	0.0583
GACCGCCC	-0.104
ATACGAAG	0.0197
AAATAAAC	0.178
CCGACAGC	-0.213
GGACGGCA	-0.109
CGGATCGC	0.0225
GTGTGACA	-0.0405
AATGCGCC	-0.0638
GGAAGGCA	-0.0591
CCATTTTA	0.222
CGTGGCCA	-0.162
ATAGTAGC	0.104
AACTTTCT	0.153
ATTTCTCC	0.00784
AAGGTGCC	-0.205
GTCCGCGA	0.00456
ATCGCCGC	0.00595
CGACCACG	0.0614
CTGCAGCC	0.0213
GTTGATAA	0.197
GGCCTCCA	-0.167
ACGGCTTC	-0.0647

Sequence	PBM E-score
GAGAATGA	0.237
ACTTGCCG	0.00918
ATCGAGTG	0.119
GGAGCACC	-0.296
AAGCTGAA	-0.022
AGGTTTCG	-0.113
ATCAGGAC	-0.0718
AGTATGGC	-0.107
CTGACAAC	0.00875
CCGCACTA	0.0825
CTTCCTAA	-0.011
CCGAACCC	-0.302
CGTGGGAG	-0.272
ACCCCCAT	-0.246
ATATGTCC	0.0229
CCCTCTCA	-0.319
ACTCGAAG	-0.194
CCCCAAAC	-0.0962
CCCGAGTA	0.0576
TAATCCAA	0.24
CTTGATAA	0.174
GTCAGCAC	-0.0445
ACTCTGTC	-0.0261
ATACTTTC	0.183
GCCACGAA	-0.226

Sequence	PBM E-score
AAAACAGA	0.172
CGCTCGCA	-0.00822
ATCACAGA	-0.00218
AGGCAAAA	0.252
AATTACGC	0.208
CTGACGGC	-0.281
GGAACTAA	0.017
AGCCAGAT	-0.0507
GGGCGTGA	-0.0331
CCGAAGAG	-0.0892
GCCGCTTA	0.0109
AACGGACC	-0.0565
ACCGAGAG	0.00673
CCAATGAG	-0.0674
AGCTGTCG	-0.197
ACAAGTTC	0.142
GTCGACAA	-0.0197
TATACAAA	0.165
CTAGGCGA	-0.0625
GACTTTAC	0.107
ATTGTTCA	0.159
AGAAGGAA	-0.126
AGATAGCA	0.0137
ACGTGTTA	0.204
AGCGTTAA	0.0628

Sequence	PBM E-score
ACGGGAAC	-0.0418
CGATAGTA	0.0352
AGGCCACG	-0.0601
TAGCGCGA	0.115
CGATTGAA	-0.0897
CTACATGA	-0.149
CTGTTTGC	0.0947
ACGCACCA	-0.101
ATCAGAGA	0.0237
CATTCTAA	0.0609
AATCACTC	0.0336
ACCCGCGT	-0.16
GGGGCAGA	-0.0806
GTTTCGCA	-0.0743
CATATACC	-0.0636
TACTATCA	0.172
AGGTTTCA	0.0131
GAAGTGTC	0.0127
ACTGAGTG	0.0252
CCTGCTGC	-0.0918
ACTAAGCA	0.0694
TGCCACCA	-0.258
ACTGATAG	0.0655
ACGTTAAG	0.0512
AGTAGGAC	-0.0996

Laid out differently: entries from further up
Sequence,PBM E-score
AGGCAAAA,0.252
AATTACGC,0.208
CTGACGGC,-0.281
GGAACTAA,0.017
AGCCAGAT,-0.0507
GGGCGTGA,-0.0331
CCGAAGAG,-0.0892
GCCGCTTA,0.0109
AACGGACC,-0.0565
ACCGAGAG,0.00673
CCAATGAG,-0.0674
AGCTGTCG,-0.197
ACAAGTTC,0.142
GTCGACAA,-0.0197
TATACAAA,0.165
CTAGGCGA,-0.0625
GACTTTAC,0.107
ATTGTTCA,0.159
AGAAGGAA,-0.126
AGATAGCA,0.0137
ACGTGTTA,0.204
AGCGTTAA,0.0628
ACGGGAAC,-0.0418
CGATAGTA,0.0352
AGGCCACG,-0.0601
TAGCGCGA,0.115
CGATTGAA,-0.0897
CTACATGA,-0.149
CTGTTTGC,0.0947
ACGCACCA,-0.101
ATCAGAGA,0.0237
CATTCTAA,0.0609
AATCACTC,0.0336
ACCCGCGT,-0.16
GGGGCAGA,-0.0806
GTTTCGCA,-0.0743
CATATACC,-0.0636

(continued)

Sequence	PBM E-score
AGATCAGA	-0.0379
CGTTCTCC	-0.0298
ACCTAAGC	0.0579
CGGATACC	-0.0378
CGGACCGC	-0.317
AATCTAGA	-0.0627
GGTGCTCA	-0.14
ATCTAACG	0.0542
AGAAGCAC	-0.0604
TGAAGACA	-0.0243
GATAAGAA	0.124
CCCGGCCA	-0.287
CGCGCCGA	-0.036
AGCCGACT	-0.216
ACAAACAG	0.118
TCTGGGCA	-0.171
AGAACGAA	0.233
CGAGCATC	0.00988
AGCCGTAC	0.0242
GAACCAAA	-0.0377
AGCATAAA	0.12
AGCCACCC	-0.369
